The values are deposited in ChEMBL (CHEMBL3988442, “University of Dundee, Small-Polar-MMV Screening Library” (2021)).

The chains behind the UniProt entries cited, without tags or fusion partners.
UniProt E9BF75, entry or part of it: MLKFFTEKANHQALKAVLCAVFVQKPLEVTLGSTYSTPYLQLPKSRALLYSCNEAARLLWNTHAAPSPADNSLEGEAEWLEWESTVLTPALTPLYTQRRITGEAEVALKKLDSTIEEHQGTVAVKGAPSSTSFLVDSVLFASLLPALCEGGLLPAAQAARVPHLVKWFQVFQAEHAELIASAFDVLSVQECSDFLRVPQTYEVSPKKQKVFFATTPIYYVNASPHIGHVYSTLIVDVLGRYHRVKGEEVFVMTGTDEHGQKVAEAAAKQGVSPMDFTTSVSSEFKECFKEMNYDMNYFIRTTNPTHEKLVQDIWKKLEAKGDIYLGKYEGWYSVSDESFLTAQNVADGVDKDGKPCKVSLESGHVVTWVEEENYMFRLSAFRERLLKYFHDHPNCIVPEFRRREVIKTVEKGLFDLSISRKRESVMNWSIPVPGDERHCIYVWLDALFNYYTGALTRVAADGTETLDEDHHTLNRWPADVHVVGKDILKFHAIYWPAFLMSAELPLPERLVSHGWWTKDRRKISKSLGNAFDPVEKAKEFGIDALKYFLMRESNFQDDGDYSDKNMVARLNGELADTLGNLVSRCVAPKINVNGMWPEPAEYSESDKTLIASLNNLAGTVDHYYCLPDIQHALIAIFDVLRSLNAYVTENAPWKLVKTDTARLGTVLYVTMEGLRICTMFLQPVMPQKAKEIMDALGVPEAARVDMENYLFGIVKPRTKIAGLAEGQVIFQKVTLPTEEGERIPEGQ

LdMetRS: 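Methionyl-tRNA synthetase (putative), Leishmania donovani (UniProt E9BF75). Primary screen of methionyl-tRNA synthetase; the read-out is not stated. The test concentration is not given. The values are filed as inhibition. About 68,000 compounds were tested under these conditions; 0.035% (about 24) showed 50% or more at least once.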
Mtb heat-shock: 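Assay on Mycobacterium tuberculosis, filed only as a heat shock assay from Cornell; the read-out is not stated. The concentration is filed as 10 mM, unlikely as a test dose, so the dose is not known. The record gives no direction; compounds that gave an IC50 in retests scored well above the rest, so higher reads as stronger inhibition. About 69,000 compounds were tested under these conditions; 1.4% (about 930) showed 50% or more at least once.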

Results are percentages, as filed.
The controls that fix the scale are not given in the record; negative values are as filed.
This is an unselected part of the compounds tested.

{"compound": "COCC(=O)N1CCCC(Cc2cnc(-c3c(C)n[nH]c3C)cn2)C1", "stereo": "centres unmarked", "LdMetRS": 18.65, "Mtb heat-shock": 10.39}
{"compound": "CS(=O)(=O)N1CCC(c2nccn2Cc2ccccn2)CC1", "LdMetRS": 2.338, "Mtb heat-shock": -0.5357}
{"compound": "CN1C(=O)C2(CCN(c3nccc4occc34)CC2)c2ccccc21", "LdMetRS": 10.64, "Mtb heat-shock": -22.76}
{"compound": "COCCc1noc(CN(C)c2nc(C)nc(C)c2C)n1", "LdMetRS": 6.005, "Mtb heat-shock": 2.975}
{"compound": "Cc1ccc(-c2noc(CCC3CCN(C)CC3)n2)nn1", "LdMetRS": 11.73, "Mtb heat-shock": -8.262}
{"compound": "Cc1ccc(C(=O)N2C[C@@H]3CCCO[C@@H]3[C@H](N(C)Cc3ccco3)C2)o1", "LdMetRS": 11.25}
{"compound": "Cc1ccc(CN[C@@H]2COC[C@H]2Cc2cc(C)no2)cc1", "LdMetRS": 6.472}
{"compound": "Cc1nc2c(c(NCC(O)c3ccccc3Cl)n1)CCNCC2", "stereo": "centres unmarked", "LdMetRS": 14.78, "Mtb heat-shock": 11.15}
{"compound": "Cc1cc(C)c(CNC(=O)N2CCN(c3ccncc3)CC2)c(=O)[nH]1", "LdMetRS": 12.11, "Mtb heat-shock": 12.54}
{"compound": "CC(C)(C)CC1CCCN1Cc1nc(-c2ccco2)no1", "stereo": "centres unmarked", "LdMetRS": 2.484, "Mtb heat-shock": -22.18}
{"compound": "CN1CCN(CC2(O)CCN(C(=O)CCc3ccccc3F)C2)CC1", "stereo": "centres unmarked", "LdMetRS": 13.71, "Mtb heat-shock": 5.307}
{"compound": "Cc1cccc(CN2C[C@@H]3COC[C@]3(CNC(=O)N3CCCC3)C2)n1", "LdMetRS": 16.74}
{"compound": "Cc1csc(C(C#N)C(=O)Nc2ccccc2)n1", "stereo": "centres unmarked", "LdMetRS": 5.072, "Mtb heat-shock": -0.9368}
{"compound": "Cn1cc(-c2nc(CN3CCN(c4nccs4)CC3)cs2)cn1", "LdMetRS": 19.67, "Mtb heat-shock": -28.78}
{"compound": "CC(C)OC(=O)N1CCC(c2nnc(Cn3ccnc3)n2C)CC1", "LdMetRS": 8.589, "Mtb heat-shock": -11.85}
{"compound": "O=C(Nc1ccc(CCN2CCOCC2)cc1)C1CC1", "LdMetRS": 18.73, "Mtb heat-shock": 23.24}
{"compound": "NC(=O)C1CCN(C(=O)NCc2ccc(-c3ccn[nH]3)cc2)CC1", "LdMetRS": 12.01, "Mtb heat-shock": -3.412}
{"compound": "Cc1nc(C)n(C2CCCN(C(=O)COc3ccccc3)C2)n1", "stereo": "centres unmarked", "LdMetRS": 9.402, "Mtb heat-shock": -12.89}
{"compound": "O=C(CN1CC(c2nc(-c3ccco3)no2)C1)NCC1CCCO1", "stereo": "centres unmarked", "LdMetRS": 10.07}
{"compound": "Cc1nc(CN2CCc3ncnc(-c4ccc(F)cc4)c3CC2)cs1.O=C(O)C(F)(F)F", "Mtb heat-shock": -9.802}
{"compound": "CCCn1nc2c(cc1=O)CN(Cc1nc(C)c3ccccc3n1)CC2", "LdMetRS": 20.98, "Mtb heat-shock": 9.045}
{"compound": "CCOC(=O)[C@]12CCCN(Cc3cccs3)C[C@H]1CN(CC(C)C)C2", "LdMetRS": 12.64}
{"compound": "CCCS(=O)(=O)NCCc1ncc(C)s1", "LdMetRS": 17.2, "Mtb heat-shock": -8.331}
{"compound": "COC(=O)CCC(=O)Nc1ccc(Br)c(C)n1", "LdMetRS": 10.86, "Mtb heat-shock": -8.765}
{"compound": "Cc1nnc(CN2CCC(Oc3ccc(C)c(C)c3)CC2)o1", "LdMetRS": 13.98, "Mtb heat-shock": -14.7}
{"compound": "Nc1nc(N)c2c(n1)OC1(CCN(C(=O)CC3CCNCC3)CC1)C2", "LdMetRS": 6.231, "Mtb heat-shock": -2.802}
{"compound": "O=C(Cc1ccc(F)cc1)N1CCn2cc(Cn3cccn3)nc2C1", "LdMetRS": 15.15}
{"compound": "Cc1cc(C)n(CC2CCCN2C(=O)c2ccc(C(N)=O)cn2)n1", "stereo": "centres unmarked", "LdMetRS": 20.83, "Mtb heat-shock": -13.05}
{"compound": "CC(Cn1cccn1)NC(=O)N(C)Cc1ccc(C(N)=O)cc1", "stereo": "centres unmarked", "LdMetRS": 6.805, "Mtb heat-shock": 4.957}
{"compound": "CCn1nc(C)cc1NC(=O)CCn1nc(C)c2ccccc21", "LdMetRS": 13.88, "Mtb heat-shock": 7.109}
{"compound": "Cc1c(C(=O)N2CCOCC2)n(C)c2ccc(Cl)cc12.Cl", "Mtb heat-shock": -20.22}
{"compound": "CCn1cc(NC(=O)C2CCN(CCOC(C)C)CC2)cn1", "LdMetRS": 8.661, "Mtb heat-shock": -4.636}
{"compound": "NC(=O)Cn1ccc(NC(=O)C2(c3ccc(F)cc3)CC2)n1", "LdMetRS": 9.699, "Mtb heat-shock": -8.203}
{"compound": "CC(C(=O)NC1CC1)n1nc(-c2cccs2)cc(N)c1=O", "stereo": "centres unmarked", "LdMetRS": 11.75, "Mtb heat-shock": 4.749}
{"compound": "CCN(C)c1ncnc2c1CCN(Cc1csc(C)n1)CC2.O=C(O)C(F)(F)F.O=C(O)C(F)(F)F", "Mtb heat-shock": 2.134}
{"compound": "CS(=O)(=O)CCCNc1cccc(COC2CCCCC2)c1", "LdMetRS": 15.24, "Mtb heat-shock": 10.42}
{"compound": "CC(C)(CO)Nc1cc(-c2ccccc2)ncn1", "LdMetRS": 16.26, "Mtb heat-shock": -17.95}
{"compound": "CC(OCc1ccccc1)C(=O)NC1CCN(CC(N)=O)CC1", "stereo": "centres unmarked", "LdMetRS": 8.807, "Mtb heat-shock": 1.403}
{"compound": "CCn1cc(-c2cncn2CCc2ccc3c(c2)OCCO3)cn1", "LdMetRS": 2.222}

For reference, 3 entries once more:

With Cc1nc(CN2CCc3ncnc(-c4ccc(F)cc4)c3CC2)cs1.O=C(O)C(F)(F)F the screen gave Mtb heat-shock: -9.802%.
With Cc1cccc(CN2C[C@@H]3COC[C@]3(CNC(=O)N3CCCC3)C2)n1 the screen gave LdMetRS: 16.74%.
With CCOC(=O)[C@]12CCCN(Cc3cccs3)C[C@H]1CN(CC(C)C)C2 the screen gave LdMetRS: 12.64%.